Consider 23 targets from the supplement of paper PMC10849652.

By UniProt entry, the sequences of proteins in these tests, tags left out. Where a name states a change or a piece, a line headed by the entry shows the natural chain unless it says otherwise.
UniProt Q9UJZ1: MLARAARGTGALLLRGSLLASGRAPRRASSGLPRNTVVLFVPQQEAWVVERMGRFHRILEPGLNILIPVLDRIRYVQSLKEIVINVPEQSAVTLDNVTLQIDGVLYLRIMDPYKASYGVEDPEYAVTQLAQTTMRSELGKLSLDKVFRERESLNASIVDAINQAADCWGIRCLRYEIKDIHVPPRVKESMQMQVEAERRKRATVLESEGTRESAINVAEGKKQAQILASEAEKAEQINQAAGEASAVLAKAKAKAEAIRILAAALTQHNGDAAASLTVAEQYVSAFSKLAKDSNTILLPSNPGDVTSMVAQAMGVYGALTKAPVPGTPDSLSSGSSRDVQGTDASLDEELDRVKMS
UniProt Q96SI9: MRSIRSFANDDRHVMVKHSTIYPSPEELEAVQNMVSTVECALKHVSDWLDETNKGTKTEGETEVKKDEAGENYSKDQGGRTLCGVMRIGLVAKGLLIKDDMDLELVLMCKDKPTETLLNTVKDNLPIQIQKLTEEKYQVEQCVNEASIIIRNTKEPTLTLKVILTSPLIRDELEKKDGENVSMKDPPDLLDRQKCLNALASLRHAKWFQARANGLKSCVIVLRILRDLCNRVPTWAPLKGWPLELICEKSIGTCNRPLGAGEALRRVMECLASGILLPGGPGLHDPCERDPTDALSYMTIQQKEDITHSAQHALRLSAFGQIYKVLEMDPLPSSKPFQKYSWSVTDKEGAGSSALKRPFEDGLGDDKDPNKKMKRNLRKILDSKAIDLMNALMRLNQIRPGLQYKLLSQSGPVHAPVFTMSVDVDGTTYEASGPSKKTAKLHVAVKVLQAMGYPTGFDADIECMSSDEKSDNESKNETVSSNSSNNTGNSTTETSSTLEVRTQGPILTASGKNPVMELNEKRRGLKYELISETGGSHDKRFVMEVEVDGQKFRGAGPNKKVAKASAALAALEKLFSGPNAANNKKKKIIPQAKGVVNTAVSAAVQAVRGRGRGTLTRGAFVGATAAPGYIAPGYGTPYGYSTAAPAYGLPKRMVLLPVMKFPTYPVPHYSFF
UniProt Q9ULQ0: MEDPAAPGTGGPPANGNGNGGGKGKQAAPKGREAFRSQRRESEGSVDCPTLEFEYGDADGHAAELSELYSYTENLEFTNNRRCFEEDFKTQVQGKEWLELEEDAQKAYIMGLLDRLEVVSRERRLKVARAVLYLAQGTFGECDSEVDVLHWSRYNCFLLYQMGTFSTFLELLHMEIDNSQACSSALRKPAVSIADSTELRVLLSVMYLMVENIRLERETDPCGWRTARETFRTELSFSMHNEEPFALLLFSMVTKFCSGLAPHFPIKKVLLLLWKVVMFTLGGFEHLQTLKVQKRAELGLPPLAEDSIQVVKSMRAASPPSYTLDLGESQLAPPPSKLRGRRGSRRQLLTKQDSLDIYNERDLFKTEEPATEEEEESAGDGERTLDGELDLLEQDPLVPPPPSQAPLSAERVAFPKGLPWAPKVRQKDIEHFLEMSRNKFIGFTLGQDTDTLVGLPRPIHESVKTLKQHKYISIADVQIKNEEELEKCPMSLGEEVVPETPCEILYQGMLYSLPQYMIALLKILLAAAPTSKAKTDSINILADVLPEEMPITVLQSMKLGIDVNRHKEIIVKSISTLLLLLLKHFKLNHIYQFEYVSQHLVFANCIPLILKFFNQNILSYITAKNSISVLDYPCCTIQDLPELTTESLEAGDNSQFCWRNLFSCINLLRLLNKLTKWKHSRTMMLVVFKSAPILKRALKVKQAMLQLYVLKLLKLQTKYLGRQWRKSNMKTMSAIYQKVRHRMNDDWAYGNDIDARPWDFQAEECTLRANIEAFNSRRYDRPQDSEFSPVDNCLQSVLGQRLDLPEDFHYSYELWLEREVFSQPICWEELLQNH
UniProt P51687: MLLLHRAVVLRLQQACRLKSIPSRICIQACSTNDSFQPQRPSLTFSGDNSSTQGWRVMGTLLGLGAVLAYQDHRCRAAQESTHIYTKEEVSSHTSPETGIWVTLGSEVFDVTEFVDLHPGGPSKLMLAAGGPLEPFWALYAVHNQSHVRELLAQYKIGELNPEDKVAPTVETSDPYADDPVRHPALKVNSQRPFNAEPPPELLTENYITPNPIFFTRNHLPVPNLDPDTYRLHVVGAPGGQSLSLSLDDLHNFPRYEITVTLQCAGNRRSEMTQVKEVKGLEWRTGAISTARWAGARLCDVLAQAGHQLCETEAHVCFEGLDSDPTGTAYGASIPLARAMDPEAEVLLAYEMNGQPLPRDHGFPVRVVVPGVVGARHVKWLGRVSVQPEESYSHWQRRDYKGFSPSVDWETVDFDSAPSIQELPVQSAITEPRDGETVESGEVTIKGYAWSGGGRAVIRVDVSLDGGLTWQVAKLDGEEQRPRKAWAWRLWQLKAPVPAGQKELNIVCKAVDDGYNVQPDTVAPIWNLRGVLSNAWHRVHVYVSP
UniProt Q9UH99: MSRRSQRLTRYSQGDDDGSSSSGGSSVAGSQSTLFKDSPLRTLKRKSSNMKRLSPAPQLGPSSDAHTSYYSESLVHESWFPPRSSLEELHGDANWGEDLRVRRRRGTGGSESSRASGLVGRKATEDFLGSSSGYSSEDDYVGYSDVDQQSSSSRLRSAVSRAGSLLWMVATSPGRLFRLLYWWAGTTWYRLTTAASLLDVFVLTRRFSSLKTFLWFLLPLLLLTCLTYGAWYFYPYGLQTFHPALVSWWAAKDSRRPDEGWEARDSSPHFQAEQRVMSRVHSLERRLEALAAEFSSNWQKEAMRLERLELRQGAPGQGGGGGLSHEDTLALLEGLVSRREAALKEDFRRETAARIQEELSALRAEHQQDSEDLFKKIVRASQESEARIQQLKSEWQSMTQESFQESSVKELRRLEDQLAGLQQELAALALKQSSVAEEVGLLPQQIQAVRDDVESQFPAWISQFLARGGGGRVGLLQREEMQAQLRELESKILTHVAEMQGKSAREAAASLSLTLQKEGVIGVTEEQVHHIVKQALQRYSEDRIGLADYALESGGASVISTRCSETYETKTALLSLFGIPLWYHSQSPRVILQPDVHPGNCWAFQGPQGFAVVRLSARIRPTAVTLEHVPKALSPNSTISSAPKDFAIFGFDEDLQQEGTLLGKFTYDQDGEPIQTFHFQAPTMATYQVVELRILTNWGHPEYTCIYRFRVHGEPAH
UniProt Q86Y82: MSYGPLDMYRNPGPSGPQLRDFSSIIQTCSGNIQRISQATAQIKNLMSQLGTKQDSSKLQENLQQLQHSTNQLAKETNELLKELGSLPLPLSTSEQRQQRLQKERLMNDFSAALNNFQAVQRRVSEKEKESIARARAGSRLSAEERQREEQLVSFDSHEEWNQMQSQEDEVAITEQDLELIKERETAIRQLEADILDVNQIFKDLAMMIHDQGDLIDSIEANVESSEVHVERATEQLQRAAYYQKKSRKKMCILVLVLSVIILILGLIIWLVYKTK
UniProt P37802: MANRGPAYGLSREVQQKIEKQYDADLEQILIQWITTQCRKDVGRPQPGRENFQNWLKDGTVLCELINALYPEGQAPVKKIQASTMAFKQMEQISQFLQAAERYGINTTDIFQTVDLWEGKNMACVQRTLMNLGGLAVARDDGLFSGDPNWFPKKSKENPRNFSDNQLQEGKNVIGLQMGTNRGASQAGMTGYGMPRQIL
UniProt Q92844: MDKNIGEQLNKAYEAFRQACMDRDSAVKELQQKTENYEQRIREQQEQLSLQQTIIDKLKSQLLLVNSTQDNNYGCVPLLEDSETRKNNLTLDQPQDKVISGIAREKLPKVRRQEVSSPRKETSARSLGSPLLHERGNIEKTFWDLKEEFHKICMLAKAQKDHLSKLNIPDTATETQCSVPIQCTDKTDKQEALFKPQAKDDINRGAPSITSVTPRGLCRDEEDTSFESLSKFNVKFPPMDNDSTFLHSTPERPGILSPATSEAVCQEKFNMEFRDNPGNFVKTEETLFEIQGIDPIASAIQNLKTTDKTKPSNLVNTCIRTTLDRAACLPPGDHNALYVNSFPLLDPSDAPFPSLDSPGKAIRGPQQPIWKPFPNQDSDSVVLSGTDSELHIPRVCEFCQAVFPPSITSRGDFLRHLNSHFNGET
UniProt Q16563: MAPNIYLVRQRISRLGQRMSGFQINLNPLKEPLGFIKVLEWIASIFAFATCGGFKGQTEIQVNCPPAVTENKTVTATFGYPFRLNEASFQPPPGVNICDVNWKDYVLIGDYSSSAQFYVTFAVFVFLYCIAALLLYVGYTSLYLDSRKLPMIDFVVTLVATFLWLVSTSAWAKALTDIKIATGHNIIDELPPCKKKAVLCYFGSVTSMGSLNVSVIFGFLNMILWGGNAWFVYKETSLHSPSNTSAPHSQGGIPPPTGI
UniProt Q7Z7C8, whole entry, looked up: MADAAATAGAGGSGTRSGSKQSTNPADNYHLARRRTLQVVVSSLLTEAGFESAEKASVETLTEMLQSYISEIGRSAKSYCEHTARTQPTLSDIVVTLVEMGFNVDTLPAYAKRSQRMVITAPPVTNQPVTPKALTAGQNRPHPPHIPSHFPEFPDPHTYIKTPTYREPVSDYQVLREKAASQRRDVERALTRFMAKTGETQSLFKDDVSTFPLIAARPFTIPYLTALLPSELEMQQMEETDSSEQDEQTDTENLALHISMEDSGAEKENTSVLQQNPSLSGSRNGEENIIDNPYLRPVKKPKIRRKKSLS
UniProt Q15833: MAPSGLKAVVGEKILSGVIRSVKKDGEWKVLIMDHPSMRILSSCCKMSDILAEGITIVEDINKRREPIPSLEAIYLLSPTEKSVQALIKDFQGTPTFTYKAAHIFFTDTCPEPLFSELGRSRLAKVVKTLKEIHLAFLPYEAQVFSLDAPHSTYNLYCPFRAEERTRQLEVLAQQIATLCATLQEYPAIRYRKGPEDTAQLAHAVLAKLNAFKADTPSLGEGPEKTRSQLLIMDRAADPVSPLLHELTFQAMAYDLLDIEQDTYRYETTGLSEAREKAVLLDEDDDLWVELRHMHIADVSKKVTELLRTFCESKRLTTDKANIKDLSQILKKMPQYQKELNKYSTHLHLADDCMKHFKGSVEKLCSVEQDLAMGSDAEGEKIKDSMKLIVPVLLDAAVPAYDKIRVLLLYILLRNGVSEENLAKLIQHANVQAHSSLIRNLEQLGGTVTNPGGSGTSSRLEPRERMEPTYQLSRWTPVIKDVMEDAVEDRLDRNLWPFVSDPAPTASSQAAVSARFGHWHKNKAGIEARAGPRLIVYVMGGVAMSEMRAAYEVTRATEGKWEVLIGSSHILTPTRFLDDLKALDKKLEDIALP
UniProt Q92804: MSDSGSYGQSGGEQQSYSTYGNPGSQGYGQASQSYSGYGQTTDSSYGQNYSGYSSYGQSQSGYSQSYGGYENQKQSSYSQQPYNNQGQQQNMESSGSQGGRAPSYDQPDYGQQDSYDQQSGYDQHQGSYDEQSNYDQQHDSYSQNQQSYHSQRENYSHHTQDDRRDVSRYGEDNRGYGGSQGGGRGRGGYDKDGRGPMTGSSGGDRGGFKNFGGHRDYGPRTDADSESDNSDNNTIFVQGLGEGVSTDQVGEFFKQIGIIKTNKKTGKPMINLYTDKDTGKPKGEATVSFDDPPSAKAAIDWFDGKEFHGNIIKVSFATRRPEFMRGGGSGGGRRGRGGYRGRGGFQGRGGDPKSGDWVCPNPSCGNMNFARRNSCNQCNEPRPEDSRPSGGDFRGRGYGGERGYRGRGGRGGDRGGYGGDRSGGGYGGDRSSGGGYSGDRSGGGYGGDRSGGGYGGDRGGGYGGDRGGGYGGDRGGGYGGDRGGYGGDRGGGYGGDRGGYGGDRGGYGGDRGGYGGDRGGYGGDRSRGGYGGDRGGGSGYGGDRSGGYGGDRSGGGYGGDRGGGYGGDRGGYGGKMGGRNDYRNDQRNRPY
UniProt Q9BW92: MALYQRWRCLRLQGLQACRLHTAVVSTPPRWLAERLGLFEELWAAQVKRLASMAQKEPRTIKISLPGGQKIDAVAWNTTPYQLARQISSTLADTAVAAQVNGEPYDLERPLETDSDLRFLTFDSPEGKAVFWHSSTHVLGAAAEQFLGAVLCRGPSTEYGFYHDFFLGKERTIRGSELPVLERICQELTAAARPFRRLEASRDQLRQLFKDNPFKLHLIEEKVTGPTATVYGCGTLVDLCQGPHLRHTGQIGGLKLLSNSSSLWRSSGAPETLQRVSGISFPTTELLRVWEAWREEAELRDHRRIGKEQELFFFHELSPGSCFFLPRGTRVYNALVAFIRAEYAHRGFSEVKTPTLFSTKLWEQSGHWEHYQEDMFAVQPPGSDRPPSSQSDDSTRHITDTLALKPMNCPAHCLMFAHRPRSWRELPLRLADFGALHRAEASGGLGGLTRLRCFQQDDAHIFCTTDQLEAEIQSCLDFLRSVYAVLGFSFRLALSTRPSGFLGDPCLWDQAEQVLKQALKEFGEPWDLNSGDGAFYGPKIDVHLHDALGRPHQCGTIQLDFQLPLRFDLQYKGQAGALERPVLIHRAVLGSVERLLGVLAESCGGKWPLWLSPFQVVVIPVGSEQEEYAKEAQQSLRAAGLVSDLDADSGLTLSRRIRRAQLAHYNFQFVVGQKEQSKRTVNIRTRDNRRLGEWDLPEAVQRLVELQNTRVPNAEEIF

Some of the results follow.

Compound in the test: C1CN(CCC1(CC2=CC=C(C=C2)Cl)N)C3=NC=NC4=C3C=CN4
The test can be described thus: log2 fold change, soluble protein after heating vs DMSO (PISA); higher = thermal stabilisation; K562 cells, 10 uM, 30 min; active = over 0.2 and 3.5 SD of the protein, either way, in both replicates (recomputed). In outline: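 Thermal stability values are relative to control samples and come from duplicates. They are expressed as log2 fold changes. For measurement, K562 cells (2×10^6 cells/mL) received 10 μM compound for 30 min, and aliquots were heated for 3 min over 48°C-58°C, pooled, and extracted at 4°C in PBS with 0.5% NP-40. Soluble protein, the supernatant after 21,000xg for 90 min, was quantified by TMTpro 16plex LC-MS/MS with equalised channel sums.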
For the target STOML2 (UniProt Q9UJZ1), the log2 fold change was inactive: 0.055.

As for STRBP (UniProt Q96SI9), the log2 fold change was inactive: -0.026.

As for STRIP2 (UniProt Q9ULQ0), the log2 fold change was inactive: 0.006.

As for SUOX (UniProt P51687), the log2 fold change is inactive: 0.087.

For TACO1 (UniProt Q9BSH4), the log2 fold change was inactive: -0.016.

In the case of SUN2 (UniProt Q9UH99), the log2 fold change is inactive: -0.017.

Take TARSL2 (UniProt A2RTX5): the log2 fold change was inactive: -0.065.

With TAX1BP1 (UniProt Q86VP1), the log2 fold change was inactive: -0.027.

Consider TAF4 (UniProt O00268), for which the log2 fold change is inactive: -0.08.

For STX12 (UniProt Q86Y82), the log2 fold change was inactive: 0.075.

On to STK3 isoform 2 (UniProt Q13188), for which the log2 fold change was inactive: 0.017.

With TAGLN2 isoform 2 (UniProt P37802), the log2 fold change is inactive: 0.01.

Take TANK (UniProt Q92844): the log2 fold change is inactive: 0.01.

As to SUPT4H1 (UniProt P63272), the log2 fold change is inactive: 0.006.

Take SYPL1 (UniProt Q16563): the log2 fold change is inactive: 0.027.

On to STX4 (UniProt Q12846), for which the log2 fold change is inactive: 0.076.

In the case of TBC1D13 (UniProt Q9NVG8), the log2 fold change is inactive: 0.021.

Consider SUCLG1 (UniProt P53597), for which the log2 fold change was inactive: 0.034.

Regarding TAF8 isoform 2 (UniProt Q7Z7C8), the log2 fold change is inactive: -0.003.

Regarding STXBP2 isoform 3 (UniProt Q15833), the log2 fold change was inactive: -0.166.

As to TAF15 (UniProt Q92804), the log2 fold change was inactive: -0.077.

As for SUB1 (UniProt P53999), the log2 fold change is inactive: 0.065.

On to TARS2 (UniProt Q9BW92), for which the log2 fold change was inactive: -0.058.
